# Results from the supplement of paper PMC4962491.
# ± gives the standard deviation of the averaged measurements. The list shows a part of the results, in another mix than the full data. Single values are uncertain here, since repeats match poorly.
# System: FaDu
# Assay: mitochondrial oxygen consumption rate normalised to cell number, Z score over the library; higher = higher oxygen consumption (negative = OCR reduction)
# Settings: treatment time 24 h, assay medium: 5 mM galactose, 5 mM pyruvate, 4 mM glutamine
# Procedure: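 Primary screen: FaDu cells were incubated 24 h with Pharmakon 1600 / TDI oncology set compounds at 2 or 10 uM. Mitochondrial-specific OCR (basal minus 2 uM antimycin A) was measured on a Seahorse XF96 in assay medium with 5 mM galactose, 5 mM pyruvate and 4 mM glutamine, then corrected for Hoechst cell number and expressed as a Z score […]. Compounds that cut cell number by >66% were excluded. Two repeats.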
Compound,mitochondrial oxygen consumption rate normalised (2 µM),mitochondrial oxygen consumption rate normalised (10 µM)
CCOC(=O)NNc1nncc2ccccc12,-0.22 ± 0.35,–
CCCCN1CCCCC1C(=O)Nc1c(C)cccc1C (stereo unspecified),0.299 ± 1.8,–
CO/N=C1\C[C@]2(C[C@@H]3C[C@@H](C/C=C(\C)C[C@@H](C)/C=C/C=C4\CO[C@@H]5[C@H](O)C(C)=C[C@@H](C(=O)O3)[C@]45O)O2)O[C@H](/C(C)=C/C(C)C)[C@H]1C,0.853 ± 0.57,-0.513 ± 0.34
CCN(CCO)CCCC(C)Nc1ccnc2cc(Cl)ccc12 (stereo unspecified),-0.143 ± 0.39,–
CC(=O)[C@H]1CC[C@H]2[C@@H]3CC=C4C[C@@H](O)CC[C@]4(C)[C@H]3CC[C@]12C,1.07 ± 1,–
COc1ccc(CC2c3cc(OC)c(OC)cc3CC[N+]2(C)CCC(=O)OCCCCCOC(=O)CC[N+]2(C)CCc3cc(OC)c(OC)cc3C2Cc2ccc(OC)c(OC)c2)cc1OC (stereo unspecified),-0.778 ± 0.19,–
CN(C)c1ccc(C(=C2C=CC(=[N+](C)C)C=C2)c2ccc(N(C)C)cc2)cc1,-7.08 ± 0.1,–
Cc1nc(-c2ccc(OCC(C)C)c(C#N)c2)sc1C(=O)O,0.413 ± 0.64,–
CN(C)CCCN1c2ccccc2Sc2ccc(Cl)cc21,0.193 ± 0.66,–
O=c1ccc2ccccc2o1,0.465 ± 1.7,–
COc1cc([C@@H]2c3cc4c(cc3[C@@H](O[C@@H]3O[C@@H]5CO[C@@H](c6cccs6)O[C@H]5[C@H](O)[C@H]3O)[C@H]3COC(=O)[C@H]23)OCO4)cc(OC)c1O,-2.54 ± 0.58,–
O=c1[nH]cnc2c1ncn2[C@@H]1O[C@H](CO)[C@@H](O)[C@H]1O,-1.16 ± 0.35,–
COc1ccnc(C[S+]([O-])c2nc3cc(OC(F)F)ccc3[nH]2)c1OC (stereo unspecified),-0.759 ± 0.81,–
Nc1ccn([C@@H]2O[C@H](CO)[C@@H](O)[C@@H]2O)c(=O)n1 [Cytarabine;  Ara-C],2.76 ± 0.9,1.36 ± 0.84
Nc1ccn([C@@H]2O[C@H](CO)[C@@H](O)[C@@H]2O)c(=O)n1,0.73 ± 1.7,0.901 ± 0.043
O=c1[nH]c(=O)c2ccccc2o1,-0.384 ± 0.92,–
Nc1ccc(S(=O)(=O)Nc2ccccn2)cc1,-0.988 ± 0.24,–
Cc1ccc(S(=O)(=O)NC(=O)NN2CCCCCC2)cc1,0.912 ± 0.093,–
COc1cccc(OC)c1C(=O)N[C@@H]1C(=O)N2[C@@H]1SC(C)(C)[C@@H]2C(=O)O,-0.805 ± 0.5,–
C[C@]12CC[C@@H]3c4ccc(OS(=O)(=O)O)cc4CC[C@H]3[C@@H]1CCC2=O,-0.146 ± 0.081,–
CCN(CC)CCOC(=O)C(c1ccccc1)c1ccccc1,0.272 ± 0.35,–
CCOC(=O)c1ccc(N)cc1,-0.744 ± 1.3,–
CC(C)(C)CC(C)(C)c1ccc(O)c(Cc2ccc(Cl)cc2Cl)c1,-2.65 ± 0.4,–
N[C@@H](Cc1ccc(O)cc1)C(=O)O,-0.329 ± 0.53,–

Compound,mitochondrial oxygen consumption rate normalised (2 µM),mitochondrial oxygen consumption rate normalised (10 µM)
O=C(COc1ccc(Cl)cc1)N1CCN(Cc2ccc3c(c2)OCO3)CC1,-0.284 ± 0.99,–
CN(Cc1cnc2nc(N)nc(N)c2n1)c1ccc(C(=O)N[C@@H](CCC(=O)O)C(=O)O)cc1 [Methotrexate],1.08 ± 0.41,–
CCN(CC)CCNc1ccc(CO)c2sc3ccccc3c(=O)c12,0.0485 ± 0.37,–
CCOc1ccc2nc3cc(N)ccc3c(N)c2c1,-1.45 ± 0.18,-3.35 ± 0.25
Nc1nc(NC2CC2)c2ncn([C@H]3C=C[C@@H](CO)C3)c2n1,0.661 ± 0.15,–
CN(C)c1ccc(O)c2c1C[C@H]1C[C@H]3[C@H](N(C)C)C(O)=C(C(N)=O)C(=O)[C@@]3(O)C(O)=C1C2=O,0.0562 ± 0.62,–
CCCCCCCCCCCCCCCCOP(=O)([O-])OCC[N+](C)(C)C,0.0312 ± 0.37,-1.18 ± 0.45
Cc1ccsc1/C=C/C1=NCCCN1C,0.0791 ± 1.4,–
CN(C)[C@@H]1C(O)=C(C(N)=O)C(=O)[C@@]2(O)C(O)=C3C(=O)c4c(O)cccc4[C@@](C)(O)[C@H]3[C@H](O)[C@@H]12,-0.343 ± 0.2,0.305 ± 0.067
Cc1cc(-c2ccccc2)nnc1NCCN1CCOCC1,-0.795 ± 1.1,–
NC(N)=Nc1nc(CSCC/C(N)=N/S(N)(=O)=O)cs1,1.54 ± 0.38,–
CSc1ccc2c(c1)N(CCC1CCCCN1C)c1ccccc1S2 (stereo unspecified),-0.192 ± 0.25,–
Cl.N=C(N)NCCC[C@H](N)C(=O)O,0.851 ± 0.52,–
CC1=C(/C=C/C(C)=C/C=C/C(C)=C\C(=O)O)C(C)(C)CCC1,0.214 ± 0.5,–
CC/C(=C(/CC)c1ccc(O)cc1)c1ccc(O)cc1,-0.488 ± 0.7,–
CO[C@H](C(=O)[C@@H](O)[C@@H](C)O)[C@@H]1Cc2cc3cc(O[C@H]4C[C@@H](O[C@@H]5C[C@@H](O)[C@H](O)[C@@H](C)O5)[C@H](O)[C@@H](C)O4)c(C)c(O)c3c(O)c2C(=O)[C@H]1O[C@H]1C[C@@H](O[C@@H]2C[C@@H](O)[C@@H](O[C@@H]3C[C@](C)(O)[C@H](O)[C@@H](C)O3)[C@@H](C)O2)[C@H](O)[C@@H](C)O1,–,-3.768 ± 0.0062
COc1cc(NC(C)CCCN)c2ncccc2c1 (stereo unspecified),-0.512 ± 0.14,–
CCCCC1(COC(=O)CCC(=O)O)C(=O)N(c2ccccc2)N(c2ccccc2)C1=O,-0.633 ± 0.51,–
CCC(=O)c1ccc(O)cc1,1.23 ± 1.1,–
Cn1ccnc1S,0.409 ± 0.54,–
Nc1c(Br)cc(Br)cc1CN[C@H]1CC[C@H](O)CC1,-0.508 ± 0.76,–
Oc1ccc(Cl)c2cccnc12,-0.181 ± 1.1,–
CS(=O)(=O)CCNCc1ccc(-c2ccc3ncnc(Nc4ccc(OCc5cccc(F)c5)c(Cl)c4)c3c2)o1 [Lapatinib Ditosylate],-0.36 ± 1.4,-0.0282 ± 1.2
CC(C)(Sc1cc(C(C)(C)C)c(O)c(C(C)(C)C)c1)Sc1cc(C(C)(C)C)c(O)c(C(C)(C)C)c1,-0.441 ± 0.34,–

Compound,mitochondrial oxygen consumption rate normalised (2 µM),mitochondrial oxygen consumption rate normalised (10 µM)
CCCN(CCC)C(=O)C(CCC(=O)O)NC(=O)c1ccccc1 (stereo unspecified),0.308 ± 0.12,–
C/C=C1\NC(=O)[C@H]2CSSCC/C=C/[C@H](CC(=O)N[C@H](C(C)C)C(=O)N2)OC(=O)[C@H](C(C)C)NC1=O [Romidepsin],1.6 ± 0.14,–
CN1CCC(=C2c3ccccc3CC(=O)c3sccc32)CC1,0.665 ± 0.2,–
COc1ccccc1N1CCN(CC(O)COc2cccc3ccccc23)CC1 (stereo unspecified),0.292 ± 0.2,–
CCN1C(=O)NC(c2ccccc2)C1=O (stereo unspecified),0.719 ± 1.1,–
O.O.O.O.O=C([O-])CC(O)(CC(=O)[O-])C(=O)[O-].[Li+].[Li+].[Li+],0.3 ± 1,-0.228 ± 1.6
N#CC(c1ccc(Cl)cc1)c1c(Cl)cc(-n2ncc(=O)[nH]c2=O)cc1Cl (stereo unspecified),-1.2 ± 1.7,–
COc1cc(OC)c(C(=O)CCCN2CCCC2)c(OC)c1,-0.105 ± 0.1,–
CO[C@H]1C[C@H](O[C@H]2[C@H](C)[C@@H](O[C@@H]3O[C@H](C)C[C@H](N(C)C)[C@H]3OC(C)=O)[C@@H](C)C[C@@]3(CO3)C(=O)[C@H](C)[C@@H](OC(C)=O)[C@@H](C)[C@@H](C)OC(=O)[C@@H]2C)O[C@@H](C)[C@@H]1OC(C)=O,0.275 ± 0.098,–
O=C(O)C1CSCN1 (stereo unspecified),-0.313 ± 0.61,–
CC(C)(S)[C@@H](N)C(=O)O,-0.921 ± 0.073,–
CCC(=O)OCC(=O)[C@@]1(OC(=O)CC)[C@H](C)CC2C3C([C@@H](O)C[C@@]21C)[C@@]1(C)C=CC(=O)C=C1C[C@H]3Cl (stereo partly specified),0.479 ± 0.89,–
O=C1O[C@H](CO)[C@@H](O)[C@H](O)[C@H]1O,-0.159 ± 0.74,–
CCCCCCCCCCC[C@@H](C[C@@H]1OC(=O)[C@H]1CCCCCC)OC(=O)[C@H](CC(C)C)NC=O,-0.119 ± 0.79,–
CC(C)(Oc1ccc(Cl)cc1)C(=O)O,-0.828 ± 0.29,–
CN1CCCN=C1COC(=O)C(O)(c1ccccc1)C1CCCCC1 (stereo unspecified),-0.634 ± 0.55,–
CC(=O)NO,1.76 ± 0.071,–
CC(=O)N[C@@H](CCC(N)=O)C(=O)O,-0.681 ± 0.011,–
NC12CC3CC(CC(C3)C1)C2,1.54 ± 0.49,–
Cc1cc(=O)n(-c2ccccc2)n1C,-0.499 ± 0.12,–
Clc1ccc(COC(Cn2ccnc2)c2ccc(Cl)cc2Cl)c(Cl)c1 (stereo unspecified),-1.04 ± 0.26,–
CC1CCc2c(N3CCC(O)CC3)c(F)cc3c(=O)c(C(=O)O)cn1c23 (stereo unspecified),-0.643 ± 0.68,–
Nc1ncnc(Nc2ccc(Cl)cc2)n1,0.0504 ± 1.1,–
CN1CCN(C2=Nc3cc(Cl)ccc3Nc3ccccc32)CC1,0.215 ± 3,–

# Reprinted at random: 3 records from the list.
Compound,mitochondrial oxygen consumption rate normalised (2 µM),mitochondrial oxygen consumption rate normalised (10 µM)
O=c1[nH]c(=O)c2ccccc2o1,-0.384 ± 0.92,–
CC(C)(C)CC(C)(C)c1ccc(O)c(Cc2ccc(Cl)cc2Cl)c1,-2.65 ± 0.4,–
CC1CCc2c(N3CCC(O)CC3)c(F)cc3c(=O)c(C(=O)O)cn1c23 (stereo unspecified),-0.643 ± 0.68,–

# Continuation:

Compound,mitochondrial oxygen consumption rate normalised (2 µM),mitochondrial oxygen consumption rate normalised (10 µM)
CCCCCCCCCCCCCCCC(=O)NCCO,-0.98 ± 0.12,–
C[C@]12CC[C@@H]3c4ccc(O)cc4CC[C@H]3[C@@H]1CC[C@@H]2OC(=O)CCC1CCCC1,-0.693 ± 0.21,–
CN1CCc2cccc3c2[C@H]1Cc1ccc(O)c(O)c1-3,-0.518 ± 0.077,–
CCC(NC(C)C)C(O)c1ccc(O)c(O)c1 (stereo unspecified),-0.00809 ± 0.1,–
CCC(Cc1c(I)cc(I)c(N)c1I)C(=O)O (stereo unspecified),-0.393 ± 0.32,–
CCOC(=O)C(C)(C)Oc1ccc(Cl)cc1,0.469 ± 1.6,–
C[C@@H]1[C@H](O)[C@@H](C)/C=C/C=C/C=C/C=C/C=C/C=C/C=C/[C@H](O[C@@H]2O[C@H](C)[C@@H](O)[C@H](N)[C@@H]2O)C[C@@H]2O[C@](O)(C[C@@H](O)C[C@@H](O)[C@H](O)CC[C@@H](O)C[C@@H](O)CC(=O)O[C@H]1C)C[C@H](O)[C@H]2C(=O)O,-0.24 ± 0.75,–
CO[C@@]1(NC(=O)CSCC#N)C(=O)N2C(C(=O)O)=C(CSc3nnnn3C)CS[C@@H]21,-1.44 ± 2.2,–
CC(C)/N=c1\cc2n(-c3ccc(Cl)cc3)c3ccccc3nc-2cc1Nc1ccc(Cl)cc1,0.317 ± 0.31,–
O=C1Cc2cc(CCN3CCN(c4nsc5ccccc45)CC3)c(Cl)cc2N1,-0.0273 ± 0.55,–
CC(=O)N(O)CCCCCNC(=O)CCC(=O)N(O)CCCCCNC(=O)CCC(=O)N(O)CCCCCN,-0.402 ± 1,–
CN1CC(=O)NC1=N,0.328 ± 0.28,–
Nc1ncn([C@H]2C[C@H](O)[C@@H](CO)O2)c(=O)n1 [Decitabine],1.01 ± 0.85,–
CC(C)(C(=O)c1cccnc1)c1cccnc1,0.0154 ± 1.2,–
CCCCC1=NC2(CCCC2)C(=O)N1Cc1ccc(-c2ccccc2-c2nnn[nH]2)cc1,0.439 ± 1.1,–
CC[C@H]1OC(=O)[C@H](C)[C@@H](O[C@H]2C[C@@](C)(OC)[C@@H](O)[C@H](C)O2)[C@H](C)[C@@H](O[C@@H]2O[C@H](C)C[C@H](N(C)C)[C@H]2O)[C@](C)(OC)C[C@@H](C)C(=O)[C@H](C)[C@@H](O)[C@]1(C)O,-0.781 ± 1.5,–
O=C(Nc1ccc(C(=O)O)c(O)c1)c1ccccc1,0.498 ± 0.34,–
CCCCOC(=O)c1ccc(N)cc1,-0.249 ± 0.2,–
N=C(N)NC(=O)c1nc(Cl)c(N)nc1N,0.675 ± 1.5,–
COc1ccc(Cc2cnc(N)nc2N)cc1OC,1.36 ± 0.16,–
S=C1SCN(Cc2ccccc2)CN1Cc1ccccc1,-0.177 ± 0.077,–
